The source of these data is PubChem BioAssay AID2685 (National Center for Advancing Translational Sciences (NCATS), 2010).

Some of the results follow. Shown are side measurements of this screen, not its main read-out; they come without a call. Most of these compounds were active or inconclusive in the main read-out, so they are no random draw. Words in brackets tell the shape of the fitted curve; partial curves, single points and poor fits give uncertain potencies.

This test is described as follows: qHTS Assay for Lipid Storage Modulators in Drosophila S3 Cells.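 On cell number change: cells counted by Cell Tracker Red CMTPX staining in the red channel.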 Particulars: BODIPY lipid droplet fluorescence, 18-24 h; for cell number change: measured here: cell count max response, cells fed with added oleic acid. Put shortly: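 Drosophila S3 cells loaded with oleic acid (400 uM, as added) and compounds at several concentrations; lipid droplets imaged by 488-nm laser-scanning cytometry, 500–530 nm intensity and object ratio to cell channel. Percent activity normalized to 20 uM Triacsin C.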
For orientation: Quantitative high-throughput screening tests each substance at several concentrations.

The mark [1] stands for this setting: measured here: cell number channel AC50, cells fed with added oleic acid.
[2] abbreviates: measured here: lipid fluorescence (Fed channel) AC50, cells fed with added oleic acid.

With `O=c1[nH][nH]c(-c2ccccc2)c1C=Nc1ccccc1Cl`, the cell number change was -14.2%.
On to `O=S(=O)(c1ccccc1)c1nc(-c2ccc(Cl)cc2)oc1NCCCN1CCOCC1`, for which the cell number change was -98.8%. In addition, the concentration at half-maximal activity (AC50) (in general, the midpoint of the concentration-response curve, whichever way the signal moves) under setting [1] is 14.6 µM [falling, partial curve, poor fit]. For the same compound, the AC50 under setting [2] is 5.17 µM [falling, full curve].
As for `Nc1ccc(C23CC4CC(CC(C4)C2)C3)cc1`, the cell number change was -28%. Besides, under setting [2], the AC50 is 29.1 µM [falling, single point].
For `COC(=O)CSc1nc2ncc(Cl)cc2[nH]1`, the cell number change is -18%. Besides, the AC50 under setting [1] was 3.26 µM [falling, single point]. The AC50 under setting [2] is 16.4 µM [falling, partial curve].
For the compound `Cc1ccccc1NC(=S)NCCc1c[nH]c2ccccc12`, the half-maximal activity concentration (AC50) under setting [1] was 2.91 µM [falling, partial curve, poor fit].
As to `COc1ccc(-c2noc(N3CCC(C(=O)Nc4ccc(OC)c(OC)c4)CC3)n2)cc1`, the cell number change was 21.3%. Besides, the AC50 under setting [2] was 29.1 µM [rising, single point].
On to `CCn1cc(C(=O)O)c(=O)c2cc(F)c(N3CCN(S(=O)(=O)c4ccc5c(c4)OCCO5)CC3)cc21`, for which the cell number change was -5.19%. Moreover, under setting [1], the AC50 is 0.00651 µM [rising, full curve, poor fit].
On to `Cc1cc(C)nc(SCC(=O)c2cc3ccccc3oc2=O)n1`, for which the cell number change amounted to 2.7%.
As for `O=C(CCN1C(=O)c2ccccc2C1=O)Nc1cc(F)ccc1F`, the cell number change was determined as 12.5%. The AC50 under setting [2] was 25.9 µM [falling, partial curve, poor fit].
As to `Cc1cc(S(=O)(=O)N2CCN(c3ccc(F)cc3)CC2)ccc1-n1cnnn1`, the AC50 was 0.164 µM [rising, partial curve, poor fit] under setting [1] and 6.51 µM [falling, single point] under setting [2].
Turning to `Cn1nnnc1SCC(=O)N1c2ccccc2Sc2ccc(Cl)cc21`, the cell number change is 55.4%. Moreover, the AC50 under setting [1] is 13 µM [rising, partial curve].
Consider `Cc1ccc(NC(=O)N2CCCC2C(=O)NCc2ccc3c(c2)OCO3)cc1` (stereo not drawn), for which the cell number change is -9.24%. Besides, the AC50 under setting [2] is 3.26 µM [falling, full curve].
For `COc1ccccc1CN1CC(C(=O)N2CCC(C(=O)c3ccccc3)CC2)CCC1=O` (stereo not drawn), the cell number change was -20%.
As for `CCC1CN(C(=O)NCc2ccccc2)c2cc(C)ccc2O1` (stereo not drawn), the cell number change is -4.23%.
On to `N#Cc1nc(COc2ccc(F)cc2)oc1N1CCN(Cc2ccccc2)CC1`, for which the cell number change was determined as 73.8%. Further, the AC50 under setting [1] is 13 µM [rising, partial curve]. Besides, under setting [2], the AC50 was 14.6 µM [rising, partial curve].
`COc1ccc(C(C(=O)NC2CCCCC2)N(Cc2cccs2)C(=O)Cc2c[nH]c3ccccc23)cc1OC` (stereo not drawn): the AC50 under setting [2] was 1.3 µM [rising, full curve].
As to `O=C(Nc1ccc(F)cc1F)c1cc(-c2ccco2)nc2ccccc12`, the AC50 under setting [2] is 29.1 µM [rising, single point].
Take `CCOc1ccc(NC(=O)CN(C)C(=O)c2ccc3[nH]c4c(c3c2)CC(C)CC4)cc1OCC` (stereo not drawn): the cell number change came to 14.3%. The AC50 under setting [1] is 2.31 µM [rising, partial curve]. Under setting [2], the AC50 was 1.84 µM [rising, partial curve].
Consider `CC(C)C(=O)NC(Nc1cc(C(F)(F)F)ccc1Cl)C(Cl)(Cl)Cl` (stereo not drawn), for which the cell number change was -18.6%. The AC50 under setting [2] was 0.146 µM [falling, single point].
For the compound `COc1cc(SC)ccc1C(=O)NCCOc1ccc(F)cc1`, the cell number change turned out to be 48.2%. Also, under setting [1], the AC50 is 20.6 µM [rising, single point]. For the same compound, under setting [2], the AC50 was 20.6 µM [rising, partial curve].
On to `Cc1c(Cl)cccc1-n1ccnc1SCC(=O)O`, for which the cell number change is -19.3%. In addition, the AC50 under setting [1] was 2.06 µM [falling, partial curve]. In addition, under setting [2], the AC50 was 0.146 µM [falling, full curve, poor fit].
`O=S1(=O)[C@H]2C[C@@H]3C=C[C@@]2(CN1Cc1ccc(F)cc1)O3`: the cell number change stood at 10.5%. The AC50 under setting [1] was 6.51 µM [rising, partial curve].
As to `COc1ccc(C(=O)NC(=S)Nc2ccc(N3CCOCC3)cc2)cc1Cl`, the cell number change is 4.17%.
`CCOc1ccccc1NC(=O)NC1CCN(CC(=O)Nc2ccc3c(c2)OCCO3)CC1`: the cell number change was -2.81%. Besides, the AC50 under setting [2] was 3.26 µM [rising, partial curve].
In the case of `CC(C)C(NC(=O)c1ccc(C(C)(C)C)cc1)C(=O)N1CCCC1` (stereo not drawn), the cell number change amounted to 6.35%. Also, under setting [2], the AC50 was 20.6 µM [rising, single point].
On to `N#Cc1c2ccc([N+](=O)[O-])cc2[n+]([O-])n1-c1ccccc1`, for which the cell number change was -60.2%. For the same compound, the AC50 under setting [1] is 16.4 µM [falling, partial curve]. Also, under setting [2], the AC50 is 2.59 µM [falling, full curve].
In the case of `COC(=O)c1sccc1NC(=S)N1CCN(c2cc(C)ccc2C)CC1`, the cell number change is 29%. The AC50 under setting [2] was 9.2 µM [rising, partial curve].
For `COc1cc2[nH]c(C(=O)Nc3ccc(F)cc3)cc2c(OC)c1OC`, the cell number change is -7.04%. For the same compound, under setting [2], the AC50 was 0.58 µM [rising, single point].
For the compound `CCOC(=O)c1sc(NC(=O)c2ccc(S(=O)(=O)N3CCCCC3)cc2)nc1-c1ccccc1`, the cell number change was -3.6%. In addition, the AC50 under setting [2] is 29.1 µM [rising, partial curve, poor fit].
In the case of `O=c1[nH]cnc2c1c(-c1ccccc1)cn2-c1ccc(Br)cc1`, the cell number change was 8.75%. Besides, under setting [2], the AC50 was 18.4 µM [rising, single point].
For `CCC(CC)N1CCN(Cc2nc3ccc([N+](=O)[O-])cc3c(=O)n2-c2ccccc2F)CC1`, the cell number change was 16.1%. For the same compound, under setting [2], the AC50 was 6.51 µM [rising, partial curve].
As to `O=S(=O)(Cc1cccc(F)c1)c1c[nH]c2ccccc12`, the cell number change was 0.173%. Moreover, the AC50 under setting [2] is 2.06 µM [rising, partial curve].
Consider `COc1ccc(OCc2cccc(C(=O)Nn3cc([N+](=O)[O-])cn3)c2)cc1`, for which the cell number change was -21.5%.
Turning to `COc1ccc(NC(=O)CSCc2ccc(C#N)cc2)c(OC)c1`, the cell number change was -10.8%.
Turning to `O=C(CN(C(=O)CCC(=O)Nc1nccs1)c1cccc(F)c1)NCc1ccc(F)cc1`, the cell number change worked out at 62.6%. Moreover, the AC50 under setting [1] is 29.1 µM [rising, single point].
`CCNC(=S)NN=C1c2ccccc2-c2ccccc21`: the cell number change was 90.8%. The AC50 under setting [1] was 23.1 µM [rising, single point]. In addition, the AC50 under setting [2] is 20.6 µM [rising, partial curve].
In the case of `CCCCNC(=O)Cn1c2c(c(-c3ccccc3Cl)cc1=O)CCC2`, the cell number change came out at 25.6%. Moreover, the AC50 under setting [2] is 18.4 µM [rising, partial curve, poor fit].
As for `O=C(COC(=O)Cc1cccc(F)c1)NC(=O)NC1CCCCC1`, the cell number change was determined as 14.1%.
